The values that follow come from patent US20150361164A1.

The chains behind the UniProt entries cited, without tags or fusion partners.
UniProt P63158: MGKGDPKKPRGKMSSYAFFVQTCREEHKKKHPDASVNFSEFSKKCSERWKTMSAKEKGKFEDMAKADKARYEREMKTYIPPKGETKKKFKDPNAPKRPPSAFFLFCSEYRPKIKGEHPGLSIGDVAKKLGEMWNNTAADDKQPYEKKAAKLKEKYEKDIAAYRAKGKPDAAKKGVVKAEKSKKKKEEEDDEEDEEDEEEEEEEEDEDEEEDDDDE

No constants are given. Whether binding was seen depends on the method and setting. Some binding calls cover weakened binding; strength is not graded here.

The target of one test is T1, #01.
T1 sequence (peptide): EEEEDEEDEEDE
In words: dot blot of synthetic peptides on nitrocellulose, HRP anti-human IgG.

Another test has as its target T2, #02.
T2 sequence (peptide): EDEEDEEDEEEE
Described as above.

The target in a further test is T3, #03.
T3 sequence (peptide): EDEEDEEEEEDE
The test is described as above.

In another test the target is T4, #04.
T4 sequence (peptide): EEDEEEEEDEED
The test is described as above.

The target of another test is T5, #05.
T5 sequence (peptide): DEEEEEDEEDED
Described as above.

The target of the next test is T6, #06.
T6 sequence (peptide): EEEEDEEDEDEE
The description is as above.

In the next test the target is T7, #07.
T7 sequence (peptide): EEDEEDEDEEED
The description is as above.

The next test deals with T8, #08.
T8 sequence (peptide): DEEDEDEEEDDD
The description is as above.

The target in test [1] is activated HMGB1 (prepared from RAW cells) (UniProt P63158). Briefly: Western blotting, antibody at 2 µg/ml.

B1: #10-22 humanized antibody EV007156 (antibody, human IgG1, lambda, V domains shown)
VH: EVQLVESGGGLVQPGGSLKLSCAASGFTFSNAAMYWVRQASGKGLEWVARIRTKPNNYATYYADSVKGRFTISRDDSKNTAYLQMNSLKTEDTAVYYCTAPRRTEGIVSSGVDYWGQGTLVTVSS
VL: YELTQPPSVSVSPGQTASITCSGDELPKRYAYWYQQKPGQSIVRVIYKDSERPSGIPERFSGSSSGTTATLTISGTQAEDEADYYCHSTYSDDKLPVFGGGTKLTVLG
Turning to B1, the binding entry with #01 is “no binding (tested: 1 µg/ml EV007156, peptide 4 µg/spot)”; with #02 it was “no binding (tested: 1 µg/ml EV007156, peptide 4 µg/spot)”; with #03, “no binding (tested: 1 µg/ml EV007156, peptide 4 µg/spot)”; with #04 it was “no binding (tested: 1 µg/ml EV007156, peptide 4 µg/spot)”; with #05, “no binding (tested: 1 µg/ml EV007156, peptide 4 µg/spot)”; in the test with #06 it was “no binding (tested: 1 µg/ml EV007156, peptide 4 µg/spot)”. Also, the binding entry is on record as “no binding (tested: 1 µg/ml EV007156, peptide 4 µg/spot)” with #07 and “no binding (tested: 1 µg/ml EV007156, peptide 4 µg/spot)” in the test with #08.

B2: rat anti-HMGB1 monoclonal antibody #10-22 (antibody, V domains shown)
VH: AVQLVESGGGLVQPKESLKISCAASGFTFSNAAMYWVRQAPGKGLEWVARIRTKPNNYATYYADSVKGRFTISRDDSKSMVYLQMDNLKTEDTAMYYCTAPRRTEGIVSSGVDYWGQGVMVTVSS
VL: YELIQPPSASVTLGNTVSITCSGDELPKRYAYWYQQKPDKSIVRVIYKDSERPSGISDRFSGSSSGTTATLTIRDTQAEDEADYYCHSTYSDDKLPVFGGGTKLTVLG
In the case of B2, the binding entry in [1] is on record as “binds”.
